Assay results published in article doi:10.1101/2022.07.27.501694.
Where two headings read alike, the source gives them in different places. Results are given in words; binding and its absence hold for the method and conditions named. For some assays here: Binding seen in cells or lysates may run through a third protein. Some entries that bind do so weakly or less than the wild type.

Protein sequences, listed by entry. Tags and fused reporters are not part of them. Lines headed by an entry give the natural chain unless they say otherwise; changes in a name come on top. Chains listed by the source or under a name are the forms on record and can include a tag or linker. Residues count along the entry.
UniProt Q8NHJ6: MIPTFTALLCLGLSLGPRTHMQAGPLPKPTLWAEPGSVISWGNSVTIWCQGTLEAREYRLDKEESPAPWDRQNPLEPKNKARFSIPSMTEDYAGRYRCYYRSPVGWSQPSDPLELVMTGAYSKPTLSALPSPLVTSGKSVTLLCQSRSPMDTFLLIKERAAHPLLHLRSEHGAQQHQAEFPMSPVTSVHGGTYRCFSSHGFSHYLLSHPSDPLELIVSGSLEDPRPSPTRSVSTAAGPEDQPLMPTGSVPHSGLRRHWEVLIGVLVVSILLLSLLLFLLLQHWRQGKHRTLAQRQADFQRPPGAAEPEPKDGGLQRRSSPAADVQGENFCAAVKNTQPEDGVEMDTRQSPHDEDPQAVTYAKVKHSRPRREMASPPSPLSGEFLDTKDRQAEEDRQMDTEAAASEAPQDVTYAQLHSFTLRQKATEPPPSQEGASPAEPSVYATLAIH
HA-tagged LILRB4: residues 22-448 of Q8NHJ6
UniProt O00214: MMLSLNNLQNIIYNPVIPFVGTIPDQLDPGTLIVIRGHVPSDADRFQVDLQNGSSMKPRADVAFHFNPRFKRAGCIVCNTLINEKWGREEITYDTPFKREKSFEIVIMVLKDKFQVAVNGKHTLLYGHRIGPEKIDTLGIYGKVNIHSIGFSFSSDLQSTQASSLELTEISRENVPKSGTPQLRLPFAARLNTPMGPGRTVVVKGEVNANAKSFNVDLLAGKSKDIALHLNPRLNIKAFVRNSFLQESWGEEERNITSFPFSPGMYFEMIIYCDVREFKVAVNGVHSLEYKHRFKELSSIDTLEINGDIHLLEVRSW

What was measured:
[1] = biological target: HA-tagged LILRB4 (UniProt Q8NHJ6); test: co-IP
[2] = biological target: recombinant protein Galectin-8 (human) (UniProt O00214); test: ELISA
[3] = biological target: recombinant protein Galectin-8 (human) (UniProt O00214); test: ELISA; remark: listed apart in the source
[4] = biological target: HA-tagged LILRB4 (UniProt Q8NHJ6); test: flow cytometry on cells
[5] = biological target: Fc-tagged LILRB4 ECD protein (UniProt Q8NHJ6); test: cross-linking

Question: With “Flag-tagged Galectin 8 (from UniProt O00214 1-317)” as the substance, how does the binding [1] read?
Answer: binds

Question: What does the source list for “Fc-tagged LILRB4 ECD protein (from UniProt Q8NHJ6 22-259) (Fc fusion)”?
Answer: binding [2]: binds; binding [3]: binds

Question: Which results are given for “recombinant protein Galectin-8 (from UniProt O00214 1-317) (ligand)”?
Answer: binding [4]: binds; binding [5]: binds
